From patent US20250243427A1, “PRECURSORS OF PHENOLIC FRAGRANT COMPOUNDS” (GIVAUDAN SA, priority 2021, published 2025) come the findings set out here.

The data set in a line: Headspace analysis of released volatiles (SPME GC-MS). Format: physicochemical. As to conditions: precursor on paper strip in closed headspace vial, 24 h daylight imitation lamp, 27-28° C.; for Released Volatiles: (Z)-hex-3-en-1-ol, relative peak area %: not related to molar release rates.

In the case of `CC/C=C\CCOc1ccc(COC(C)C)cc1OCC` [Example 50, (Z)-2-ethoxy-1-(hex-3-en-1-yloxy)-4-(isopropoxymethyl)benzene], the “Released Volatiles: 2-ethoxy-4(isopropoxymethyl)phenol (Propyl Diantilis), relative peak area %” value is listed as “Diantilis », 17.1%)” and the “Released Volatiles: (Z)-hex-3-en-1-ol, relative peak area %” value is “(Z)-hex-3-en-1-ol (0.8%), 2-ethoxy-”.
Consider `CC=CCCOc1ccc(C=O)cc1OCC` [Example 33, 3-ethoxy-4-(pent-3-en-1-yloxy)benzaldehyde], for which the “Released Volatiles: (E,Z)-pent-3-en-1-ol, relative peak area %” value was “(E,Z)-pent-3-en-1-ol (1.2%), ethyl vanillin” and the “Released Volatiles: ethyl vanillin, relative peak area %” value is recorded as “(0.7%)”.
In the case of `CC/C=C\CCOc1ccc(C=O)cc1OCC` [Example 1, (Z)-3-ethoxy-4-(hex-3-en-1-yloxy)benzaldehyde], the “Released Volatiles: ethyl vanillin, relative peak area %” value was “(0.3%)” and the “Released Volatiles: (Z)-hex-3-en-1-ol, relative peak area %” value is “(Z)-hex-3-en-1-ol (5.6%), ethyl vanillin”.
Consider `C=CCc1ccc(OCC/C=C\CC)c(OC)c1` [Example 10, (Z)-4-allyl-1-(hex-3-en-1-yloxy)-2-methoxybenzene], for which the “Released Volatiles: eugenol, relative peak area %” value amounted to 1.0% and the “Released Volatiles: (Z)-hex-3-en-1-ol, relative peak area %” value turned out to be 1.9%.
Regarding `CCOc1cc(C=O)ccc1OCCC=C(C)C` [Example 34, 3-ethoxy-4-((4-methylpent-3-en-1-yl)oxy)benzaldehyde], the “Released Volatiles: 3-methylbut-2-enal, relative peak area %” value is reported as 3-methylbut-2-enal (0.1%), 4-methylpent-3-; the “Released Volatiles: 4-methylpent-3-en-1-ol, relative peak area %” value is “en-1-ol (2.7%), 5,5-dimethylfuran-2(5H)-one”; the “Released Volatiles: 5,5-dimethylfuran-2(5H)-one, relative peak area %” value was found to be 0.3%; the “Released Volatiles: ethyl vanillin, relative peak area %” value amounted to 0.5%.
